The text below walks through data of publication PMC9707739.

Chains of the proteins cited; added tags and fusions are not shown.
UniProt P28159: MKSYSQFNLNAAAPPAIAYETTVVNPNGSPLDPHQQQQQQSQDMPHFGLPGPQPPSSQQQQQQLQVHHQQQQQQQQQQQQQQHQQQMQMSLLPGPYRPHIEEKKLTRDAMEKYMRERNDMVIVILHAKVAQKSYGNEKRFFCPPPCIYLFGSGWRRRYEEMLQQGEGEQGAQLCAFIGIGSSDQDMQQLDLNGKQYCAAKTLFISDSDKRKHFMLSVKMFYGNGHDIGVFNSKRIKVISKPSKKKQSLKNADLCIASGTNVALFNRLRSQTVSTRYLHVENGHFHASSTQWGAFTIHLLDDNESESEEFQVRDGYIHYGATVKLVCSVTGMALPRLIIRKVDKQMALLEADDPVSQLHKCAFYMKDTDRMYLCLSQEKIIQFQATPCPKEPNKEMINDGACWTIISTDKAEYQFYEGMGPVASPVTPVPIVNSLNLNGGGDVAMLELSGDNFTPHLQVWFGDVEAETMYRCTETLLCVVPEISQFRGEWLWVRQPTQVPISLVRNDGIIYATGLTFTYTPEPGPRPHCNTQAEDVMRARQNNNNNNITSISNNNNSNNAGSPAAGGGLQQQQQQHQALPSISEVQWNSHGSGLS

These are yes or no findings as the source states them, for the method shown. In cells and extracts the contact can be indirect. Some results given as binding are weak or reduced against the parent protein; the word gives no strength. Where a sequence is shown, tags or fusion partners need not be part of it.

For the assay, the target named is T1, GST::Med19 (Drosophila) (UniProt Q9VVL6).
T1 sequence: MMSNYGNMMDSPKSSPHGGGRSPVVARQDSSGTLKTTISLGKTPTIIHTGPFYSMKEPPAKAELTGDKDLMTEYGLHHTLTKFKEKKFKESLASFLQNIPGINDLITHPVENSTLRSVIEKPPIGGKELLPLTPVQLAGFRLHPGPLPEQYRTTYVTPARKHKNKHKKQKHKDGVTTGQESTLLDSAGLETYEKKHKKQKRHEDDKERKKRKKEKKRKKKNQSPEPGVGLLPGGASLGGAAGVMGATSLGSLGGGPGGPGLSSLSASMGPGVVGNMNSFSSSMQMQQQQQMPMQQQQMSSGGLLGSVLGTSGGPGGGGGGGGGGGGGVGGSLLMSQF
The assay is described as follows: pull-down; GST or GST::Med19 on glutathione-Sepharose beads; in vitro translated Su(H)-HA as prey; Western blot with anti-HA; input 5% of the starting material; only the target purified.

Take “C-terminally HA tagged Su(H) (from UniProt P28159 1-594)”: the binding result is “binds”.
